Test results: patent US9585897B2, “Anti-infective hydroxy-phenyl-benzoates and methods of use” (priority 2008, dated 2017)
For some assays here: For at least one compound, name, drawing or mass did not settle the structure. Some results were stated once for a whole list of compounds, not compound by compound.

What was measured:
[1] = test system: SA strains SH1000 (MSSA), USA300 (MRSA); experiment: Gene expression quantified by realtime PCR, statements covering both SA strains; type: cell-based, Staphylococcus aureus; details: 25 μg/ml
cyclooxygenase = details: cited from earlier work

With `O=C(O)CNC(=O)c1ccccc1O` [SCU, salicyluric acid] the gene expression [1] was “did not alter”.
In the case of `CC(=O)Oc1ccc(-c2ccc(F)cc2)cc1C(=O)O` [Flufenisal], the “activity relative to aspirin in terms of cyclooxygenase functions” value (cyclooxygenase) is given as 2-3 fold.
